Article PMC3296622

Sequences of proteins named here, by UniProt entry; tags and fusion partners are left off. A change or cut given only in a name is not applied to a line headed by its entry.
UniProt Q61006: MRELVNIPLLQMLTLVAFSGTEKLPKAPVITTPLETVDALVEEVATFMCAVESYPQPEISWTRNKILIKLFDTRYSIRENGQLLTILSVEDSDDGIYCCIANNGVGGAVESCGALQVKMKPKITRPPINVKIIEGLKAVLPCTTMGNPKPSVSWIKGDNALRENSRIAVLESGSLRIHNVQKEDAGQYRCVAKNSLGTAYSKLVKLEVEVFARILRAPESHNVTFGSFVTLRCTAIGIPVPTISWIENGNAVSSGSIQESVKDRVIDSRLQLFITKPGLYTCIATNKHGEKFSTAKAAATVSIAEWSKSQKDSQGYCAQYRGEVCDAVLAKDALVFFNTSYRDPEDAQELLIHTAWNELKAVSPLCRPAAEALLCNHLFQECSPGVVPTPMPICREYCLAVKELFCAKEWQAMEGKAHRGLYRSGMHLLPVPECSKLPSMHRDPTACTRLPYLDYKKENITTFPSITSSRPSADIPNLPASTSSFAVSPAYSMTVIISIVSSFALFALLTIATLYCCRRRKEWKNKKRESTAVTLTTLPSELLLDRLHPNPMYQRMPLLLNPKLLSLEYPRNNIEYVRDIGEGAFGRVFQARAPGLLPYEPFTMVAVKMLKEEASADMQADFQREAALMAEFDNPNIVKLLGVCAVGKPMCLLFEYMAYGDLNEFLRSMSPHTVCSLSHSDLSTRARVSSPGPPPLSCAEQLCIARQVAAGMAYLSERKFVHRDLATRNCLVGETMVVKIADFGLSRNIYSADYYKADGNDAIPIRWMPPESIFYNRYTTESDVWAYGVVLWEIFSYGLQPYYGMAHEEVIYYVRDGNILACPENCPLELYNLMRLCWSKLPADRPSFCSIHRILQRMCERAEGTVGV

Molecular target: T1, Flag-tagged Wnt11 (UniProt P48615)
T1 sequence: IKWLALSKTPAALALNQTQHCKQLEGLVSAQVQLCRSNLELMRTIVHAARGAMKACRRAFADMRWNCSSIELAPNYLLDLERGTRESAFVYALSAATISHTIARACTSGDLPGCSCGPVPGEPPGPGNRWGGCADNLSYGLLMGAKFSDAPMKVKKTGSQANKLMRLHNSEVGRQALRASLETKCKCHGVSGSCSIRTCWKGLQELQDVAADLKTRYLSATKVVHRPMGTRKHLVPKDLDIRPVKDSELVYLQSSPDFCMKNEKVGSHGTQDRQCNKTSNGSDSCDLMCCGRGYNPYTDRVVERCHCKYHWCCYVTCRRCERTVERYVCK
Test: pull-down; solution binding assay: Flag-Wnts immobilised on beads, incubated with the Myc-tagged soluble ectodomain protein; bound proteins resolved by SDS-PAGE and blotted with anti-Myc and anti-Flag

binding: binds
Substance: ectΔCRD, a mutant MuSKect without the CRD (from UniProt Q61006) (domain or fragment)

No constants are given. Whether binding was seen depends on the method and setting. In cells and extracts the contact can be indirect. Binding calls can cover weak binding; strength is not graded here. Tags and fused reporters may be left off the sequences shown.
